Laboratory results reported in patent US20060034860A1.
No constants are given. Whether binding was seen depends on the method and setting. Some entries that bind do so weakly or less than the wild type.

B1: Human PIASY (prey000022), prey fragments (enzyme)
chain: AAELVEAKNMVMSFRVSDLQMLLGFVGRSKSGLKHELVTRALQLVQFDCSPELFKKIKELYETRYAKKNSEPAPQPHRPLDPLTMHSTYDRAGAVPRTPLAGPNIDYPVLYGKYLNGLGRLPAKTLKPEVRLVKLPFFNMLDELLKPTELVPQNNEKLQESPCIFALTPRQVELIRNSRELQPGVKAVQVVLRICYSDTSCPQEDQYPPNIAVKVNHSYCSVPGYYPSNKPGVEPKRPCRPINLTHLMYLSSATNRITVTWGNYGKSYSVALYLVRQLTSSELLQRLKTIGVKHPELCKALVKEKLRLDPDSEIATTGVRVSLICPLVKMRLSVPCRAETCAHLQCFDAVFYLQMNEKKPTWMCPVCDKPAPYDQLIIDGLLSKILSECEDADEIEYLVDGSWCPIRAEKERSCSPQGAILVLGPSDANGLLPAPSVNGSGALGSTGGGGPVGSMENGKPGADVVDLTLDSSSSSEDEEEEEEEEEDEDEEGPRPKRRCPFQKGLVPAC
B2: Human TRN-SR (prey007766), prey fragments (protein)
chain: MEGAKPTLQLVYQAVQALYHDPDPSGKERASFWLGELQRSVHAWEISDQLLQIRQDVESCYFAAQTMKMKIQTSFYELPTDSHASLRDSLLTHIQNLKDLSPVIVTQLALAIADLALQMPSWKGCVQTLVEKYSNDVTSLPFLLEILTVLPEEVHSRSLRIGANRRTEIIEDLAFYSSTVVSLLMTCVEKAGTDEKMLMKVFRCLGSWFNLGVLDSNFMANNKLLALLFEVLQQDKTSSNLHEAASDCVCSALYAIENVETNLPLAMQLFQGVLTLETAYHMAVAREDLDKVLNYCRIFTELCETFLEKIVCTPGQGLGDLRTLELLLICAGHPQYEVVEISFNFWYRLGEHLYKTNDEVIHGIFKAYIQRLLHALARHCQLEPDHEGVPEETDDFGEFRMRVSDLVKDLIFLIGSMECFAQLYSTLKEGNPPWEVTEAVLFIMAAIAKSVDPENNPTLVEVLEGVVRLPETVHTAVRYTSIELVGEMSEVVDRNPQFLDPVLGYLMKGLCEKPLASAAAKAIHNICSVCRDHMAQHFNGLLEIARSLDSFLLSPEAAVGLLKGTALVLARLPLDKITECLSELCSVQVMALKKLLSQEPSNGISSDPTVFLDRLAVIFRHTNPIVENGQTHPCQKVIQEIWPVLSETLNKHRADNRIVERCCRCLRFAVRCVGKGSAALLQPLVTQMVNVYHVHQHSCFLYLGSILVDEYGMEEGCRQGLLDMLQALCIPTFQLLEQQNGLQNHPDTVDDLFRLATRFIQRSPVTLLRSQVVIPILQWAIASTTLDHRDANCSVMRFLRDLIHTGVANDHEEDFELRKELIGQVMNQLGQQLVSQLLHTCCFCLPPYTLPDVAEVLWEIMQVDRPTFCRWLENSLKGLPKETTVGAVTVTHKQLTDFHKQVTSAEECKQVCWALRDFTRLFR

How the values were obtained:
[1] = target: HIV-1 Integrase (IN), bait IN (HIV-1 isolate YU2) (UniProt P35963); assay: yeast two-hybrid screen, IN bait
[2] = target: HIV-1 Integrase (IN), bait IN (HIV-1 isolate YU2) (UniProt P35963); assay: yeast two-hybrid screen, bait IN (pB27), CEMC7 random primed cDNA prey library; table of bait-prey interactions
[3] = target: HIV-1 Integrase (IN), bait IN (HIV-1 isolate YU2) (UniProt P35963); assay: yeast two-hybrid screen, IN bait, CEM cDNA prey libraries

Binder | binding [1] | binding [2] | binding [3]
B1 | binds | binds | –
B2 | – | binds | binds
